The record followed here is paper PMC12043515, “Stepwise neofunctionalization of the NF-κB family member Rel during vertebrate evolution”.

Protein sequences, listed by entry. Tags and fused reporters are not part of them. Residues count along the entry.
UniProt P98152, 25-311: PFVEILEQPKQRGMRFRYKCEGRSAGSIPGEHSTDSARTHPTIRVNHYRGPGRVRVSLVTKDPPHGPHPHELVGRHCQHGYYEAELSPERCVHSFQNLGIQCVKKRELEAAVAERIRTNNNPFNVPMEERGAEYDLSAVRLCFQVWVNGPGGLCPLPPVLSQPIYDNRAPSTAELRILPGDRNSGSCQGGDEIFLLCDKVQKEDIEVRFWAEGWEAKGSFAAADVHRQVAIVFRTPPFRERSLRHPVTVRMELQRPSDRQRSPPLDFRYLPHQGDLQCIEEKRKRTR
UniProt P15307, 8-297 R108Q: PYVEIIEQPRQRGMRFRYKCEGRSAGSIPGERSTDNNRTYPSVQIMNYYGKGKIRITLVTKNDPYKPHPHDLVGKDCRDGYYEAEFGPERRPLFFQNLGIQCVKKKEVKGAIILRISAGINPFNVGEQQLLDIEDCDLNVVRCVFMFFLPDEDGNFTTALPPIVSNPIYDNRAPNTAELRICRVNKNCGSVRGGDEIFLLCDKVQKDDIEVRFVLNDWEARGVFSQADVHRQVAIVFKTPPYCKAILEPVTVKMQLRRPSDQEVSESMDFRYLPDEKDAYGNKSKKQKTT

The exact form of at least one protein or probe is not confirmed. Where cells or extracts were used, other partners may take part. For some of these results: Weaker means in comparison with the reference protein, sequence or condition of that experiment. For some of these results: Protein sequences can lack the tags named with them.

What all share (test): EMSA off-rate
Background: A gel shift assay detects complexes by their altered migration in electrophoresis.

Data set [1] deals with T1, Rel RHR chicken (chicken) (UniProt P16236).
T1 sequence (looked up, limits assumed): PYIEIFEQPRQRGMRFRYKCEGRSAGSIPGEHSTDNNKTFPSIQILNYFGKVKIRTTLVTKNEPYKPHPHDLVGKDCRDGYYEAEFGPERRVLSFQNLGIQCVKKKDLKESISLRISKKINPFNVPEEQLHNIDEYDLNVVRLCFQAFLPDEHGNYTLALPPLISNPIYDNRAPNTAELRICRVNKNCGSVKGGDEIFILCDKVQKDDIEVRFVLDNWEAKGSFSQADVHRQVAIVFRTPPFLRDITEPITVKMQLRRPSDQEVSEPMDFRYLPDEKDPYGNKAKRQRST
Conditions: comparable to chicken RelA; EMSA: 10 mM Tris-HCl pH 7.5, 150 mM NaCl, 1 mM DTT, 1 mM EDTA, 5% glycerol, 80 ng/ul dI-dC, 200 ng/ul BSA, 4 C; off-rate with 100-fold unlabeled consensus; protein in a lysate after overexpression; protein details: N-terminal Flag; label: 32P.

The target of data set [2] is RelA RHR chicken (chicken) (UniProt P98152). Conditions: comparable to chicken Rel; EMSA: 10 mM Tris-HCl pH 7.5, 150 mM NaCl, 1 mM DTT, 1 mM EDTA, 5% glycerol, 80 ng/ul dI-dC, 200 ng/ul BSA, 4 C; off-rate with 100-fold unlabeled consensus; protein in a lysate after overexpression; protein details: N-terminal Flag; label: 32P.
Data set [3] concerns the target T2, RelA RHR zebrafish (zebrafish) (UniProt A0A8M2BI19).
T2 sequence (looked up, limits assumed): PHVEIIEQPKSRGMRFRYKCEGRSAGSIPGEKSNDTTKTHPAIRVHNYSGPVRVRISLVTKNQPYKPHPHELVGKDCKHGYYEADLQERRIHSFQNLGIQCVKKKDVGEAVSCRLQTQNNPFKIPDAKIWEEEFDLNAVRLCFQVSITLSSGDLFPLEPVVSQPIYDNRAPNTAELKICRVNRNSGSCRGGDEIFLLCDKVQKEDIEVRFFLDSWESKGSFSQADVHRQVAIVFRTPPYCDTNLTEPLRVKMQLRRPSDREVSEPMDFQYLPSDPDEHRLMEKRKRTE
Conditions: comparable to zebrafish Rel; EMSA: 10 mM Tris-HCl pH 7.5, 150 mM NaCl, 1 mM DTT, 1 mM EDTA, 5% glycerol, 80 ng/ul dI-dC, 200 ng/ul BSA, 4 C; off-rate with 100-fold unlabeled consensus; protein in a lysate after overexpression; protein details: N-terminal Flag; label: 32P.

A further data set has as its target Rel RHR R101Q R108Q (UniProt P15307). The settings on record: faster off-rate than WT; EMSA: 10 mM Tris-HCl pH 7.5, 150 mM NaCl, 1 mM DTT, 1 mM EDTA, 5% glycerol, 80 ng/ul dI-dC, 200 ng/ul BSA, 4 C; off-rate with 100-fold unlabeled consensus; protein in a lysate after overexpression; label: 32P.

Consider “CCTAACATCAGGGAATTTCCTGATGTTAGG (double strand) [consensus NF-κB]”, for which the binding result in data set [1] is recorded as “binds”; in data set [2], “binds”; in data set [3], “binds”; with Rel RHR R101Q R108Q it was “binds more weakly”.
